Measurements from PubChem BioAssay AID2685 (National Center for Advancing Translational Sciences (NCATS), 2010).
Out of some 320,000 compounds screened, about 2,100 (0.66%) were called active. The shares of active, inactive and inconclusive entries below differ from those in the screen. Calls come from the whole dose curve; as a rule, active = well fitted inhibition curve with a large enough effect in the signal ratio, with a control signal flat (not every such curve was filed as active); inconclusive = small, poorly fitted or top-dose-only effect, or effect the other way, or a change in a side signal; inactive = flat fitted curve, though single readings scatter; the % refers to the signal ratio. Potencies of inconclusive entries are doubtful fits and often do not repeat.

Test: qHTS Assay for Lipid Storage Modulators in Drosophila S3 Cells
Conditions: BODIPY lipid droplet fluorescence, 18-24 h, cells fed with added oleic acid; lipid storage change, negative = inhibition: at 46.1 µM (top of the series) unless noted
Summary of the method: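 Drosophila S3 cells got compounds at several concentrations plus oleic acid (400 uM solution). Laser-scanning cytometry with 488 nm excitation read lipid droplets at 500-530 nm and cells at 575-640 nm. Percent activity was relative to 20 uM Triacsin C.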
% is set by controls: 0 for no effect and ±100 for the full control effect; potency is the fitted concentration of half-maximal effect.

Lipid storage change, negative = inhibition, inactive:
Fc1cccc(COc2ccccc2CNc2ccccc2)c1
CC(=O)OCC(OC(C)=O)C(OC(C)=O)C(OC(C)=O)C(=O)Nc1ccccc1 (centres undefined)

Lipid storage change, negative = inhibition, inconclusive:
CCc1nc(SCc2ccc(Br)cc2)n[nH]1 16.7%
COCC(C)NC(=O)c1cc(OC)cc(OC)c1 (centres undefined) 24.9% [at 9.22 µM]
CCOC(=O)C(CC(=O)Nc1nc(C(C)=O)c(C)s1)C(C)c1ccccc1 (centres undefined) -19.7%
Cc1oc(-c2cccs2)nc1CN1CCN(C(C)C)C(CCO)C1 (centres undefined) -19.2%
CC(=O)C1=C(c2ccccc2)NC(=O)NC1c1ccc2c(c1)OCO2 (centres undefined) 32.8%
Cc1cc(C(=O)COC(=O)C2=NNC(=O)CC2)c(C)n1-c1ccc(OC(F)F)cc1 30.9%
O=S(=O)(c1cnc(Cl)c(Cl)c1)N1CCCc2ccccc21 -71.5%
CCOC(=O)N1CCN(CC(=O)Nc2ccc(C)cc2)CC1 10.1%
Cc1ccc2nc(NC(=O)C3CCN(C(=O)c4ccc(F)cc4)CC3)sc2c1 -20.4%
COC(=O)c1[nH]c2cccc(OC)c2c1NC(=O)CCN1CC(C)CC(C)C1 (centres undefined) -4.22%
CCN1C(=O)/C(=C\C(=O)c2cccs2)c2cc(Br)ccc21 -1.11%
c1ccc(Oc2ncnc3sccc23)cc1 4.39%
CCN(CC)S(=O)(=O)c1ccc(C(=O)Nc2cccc(C)c2)cc1 141%
Cc1csc2ncc(C(=O)N3c4ccccc4CC3C)c(=O)n12 (centres undefined) 9.5%
CCCCn1c(=O)[nH]c(=O)c2c1nc(-c1ccc(-c3ccccc3Br)o1)n2CCOC -6.68%
Cc1cc(=O)oc2cc(OCC(=O)NCc3ccncc3)ccc12 14.4%
Cc1nn2c(N)c(-c3ccccc3)cnc2c1-c1ccccc1 15.3%
Cc1nc(C)c(-c2ccc(SCC(=O)Nc3ccc(F)cc3F)nn2)s1 16%
COCCCNC(=S)N(CCCN(C)C)Cc1cc2cc3c(cc2[nH]c1=O)OCCO3 -5.9%
CC(C)(C)OC(=O)NCc1ccc(NC(=O)c2nc[nH]c2C(=O)N[C@@H](Cc2ccccc2)C(=O)OC(C)(C)C)cc1 -60.8%
CCOC(=O)N1CCN(C(=O)c2cc(-c3ccc(F)cc3)[nH]c2C)CC1 1.03%
Cc1ccc2nsnc2c1NC(=O)c1sc2ccccc2c1Cl -2.27%
Cc1ccc(/C=C(/NC(=O)c2ccccc2)C(=O)NCCc2c[nH]c3ccccc23)o1 108%
O=C(O)C(c1ccccc1)N1C(=O)/C(=C\c2ccc(O)c(O)c2)SC1=S (centres undefined) -181%
O=C(Nc1nc2cc3c(cc2s1)OCCO3)c1ccc(N2C(=O)CCC2=O)cc1 8.88%
CCc1c(C)nc(N)n2c(SCC(=O)Nc3ccccc3)nnc12 -51.1%
CCCCC(=O)NCCc1ccc(OC)cc1 44.3%
CCOc1cc(/C=N\NC(=O)c2ccc(C)nc2)cc([N+](=O)[O-])c1O 20.5%
O=C(Nc1ccc(S(=O)(=O)N2C[C@@H]3C[C@@H](C2)c2cccc(=O)n2C3)cc1)c1ccc(F)cc1 6.53%
Cc1c(C(=O)N2CCN(c3ccc(F)cc3)CC2)oc2c1C(=O)CCC2 12.1%
CC1(C)CC2(C)OC(=N)C1(C#N)C2(C#N)C#N (centres undefined) -9.34%
CC1=Nc2ccccc2/C1=C/c1sc(=S)n(-c2cccc(C(=O)O)c2)c1O -69.4%
Cc1ccc2cc(-c3noc(C4CCCO4)n3)c(=O)[nH]c2c1 (centres undefined) 24.3% [at 9.22 µM]
c1ccc(N2CCCCC2)c(NC2=NCCC2)c1 2.2%
CC(=O)Nc1ccc(C(=O)NNC(=O)c2cccc(C)c2)cc1 1.43%
CN(CCC(=O)Nc1ccc(Cl)cc1)Cc1ccccc1 24.3%
COc1ccc(C(=O)Nc2cccc(N(C)S(C)(=O)=O)c2)cc1OC 53.9%
c1ccc(-c2nnc(CSc3nc4ccccc4[nH]3)o2)cc1 -31.4%
Cc1cc(N2CCN(c3ccccc3)CC2)nc2ccccc12 -0.282%
OCc1nc2ccccc2n1CC(O)COc1ccccc1 (centres undefined) 32.6%
CCOC(=O)c1cc(NC(=O)CSCCO)ccc1Cl 6.55%
O=[N+]([O-])c1cccnc1SCc1ccccc1 11.9%
Cc1cccc(C(=O)NCCc2ccccc2)c1 14%
CC(=O)Nc1nnc(CCS(=O)(=O)c2ccc(Cl)cc2)s1 -28.5%
CCN(CC)C(=O)c1sc(NC(=O)c2c(OC)cccc2OC)c(C#N)c1C -39.9% [at 0.369 µM]
Cc1nc(SCC(=O)NCc2ccco2)c2c(=O)n(C)c(=O)n(CC(C)C)c2n1 -34.9%
CC(=O)C1=C(c2ccccc2)NC(=O)NC1c1cccs1 (centres undefined) 6.69%
CS(=O)(=O)c1ccc2nc(NC(=O)c3ccc(Cl)nc3)sc2c1 6.31%
Cc1ccccc1Cn1nc(C)c(NC(=O)/C=C/c2cnn(C)c2)c1C 29.1%
CCOC(=O)c1cc2c(=O)n3ccccc3nc2n(Cc2ccco2)c1=NC(=O)c1cccc(OC)c1 65.9%
NC(=O)c1cc2cc(Cc3ccccc3Cl)ccc2oc1=O -2.58%
COc1cccc(CC(=O)OCC(=O)NC2CCCC2)c1 -0.778%
O=C(Nc1cccc(C(F)(F)F)c1)Nc1ccon1 -31.5%

Three entries from above, sorted by heavy-atom count, high to low:
Lipid storage change, negative = inhibition, inconclusive:
CCN(CC)S(=O)(=O)c1ccc(C(=O)Nc2cccc(C)c2)cc1 141%
Cc1cc(N2CCN(c3ccccc3)CC2)nc2ccccc12 -0.282%
CN(CCC(=O)Nc1ccc(Cl)cc1)Cc1ccccc1 24.3%

Next part:

Potency, active:
CSc1cccc(NC(=O)CCCn2c(=O)c3cccn3c3cccnc32)c1 18.4 µM

Potency, inconclusive:
CC(=O)c1ccccc1OCc1ccc(C(=O)c2ccccc2)cc1 29.1 µM [falling, single point]
O=C(NS(=O)(=O)N1CCCC1)C1=C(N2CCCC2)COC1=O 7.31 µM [falling, partial curve, poor fit]
CCn1cc(Br)c(C(=O)Nc2ccc(OC)cc2)n1 8.2 µM [activator, partial curve]
CCc1ccc(NC(=O)c2cnc(SC)nc2C)cc1 29.1 µM [activator, single point]
Cc1ccc(NC(=O)Nn2cnnc2)cc1Cl 6.51 µM [activator, partial curve, poor fit]
COC(=O)C(NC(=O)c1c(C)nn(C)c1Cl)c1ccccc1 (centres undefined) 1.3 µM [falling, full curve, poor fit]
Clc1ccccc1OCCn1nnc2ccccc21 9.2 µM [activator, partial curve]
CC(Sc1nnc(-c2ccc(OC(F)F)cc2)n1N)C(=O)NCC1CCCO1 (centres undefined) 11.6 µM [activator, single point]
CCSC1=NC(C)(C)C=C(/C=C/c2ccc(Cl)cc2Cl)N1 29.1 µM [falling, single point]
Cc1ccccc1N1C(S)=C(C#N)C(=O)NC1c1cccs1 (centres undefined) 29.1 µM [falling, single point]
Cc1ccc(C)c(S(=O)(=O)N2CCCOC2CNC(=O)C(=O)NCCc2ccccc2)c1 (centres undefined) 0.116 µM [activator, full curve]
O=[N+]([O-])c1ccc(-c2nc3ccc([N+](=O)[O-])cc3[nH]2)cc1 20.6 µM [falling, partial curve]
CSc1cccc(NC(=O)CCn2c(=O)c3cccn3c3cccnc32)c1 29.1 µM [falling, single point]
CS(=O)(=O)N(CC(O)Cn1c2ccccc2c2ccccc21)c1cccc2ccccc12 (centres undefined) 16.4 µM [activator, partial curve]
O=C(O)c1ccc(Cl)c(NCc2cccnc2)c1 1.3 µM [activator, partial curve]
CC(C)(C)C(CCl)C(=O)NN=C(c1ccccc1)c1ccccc1 (centres undefined) 29.1 µM [activator, single point]
CCC(CC)NC(=O)c1cc2c(C)nn(Cc3ccccc3Cl)c2s1 2.06 µM [activator, partial curve, poor fit]
c1ccc(Nc2nn[nH]n2)cc1 6.51 µM [falling, single point]
CCOc1cc([N+](=O)[O-])cc2c1C(=O)Nc1ccccc1O2 29.1 µM [falling, single point]
CC(C)c1ccc(NC(=O)COc2nnc(-c3cccs3)c(-c3cccs3)n2)cc1 2.91 µM [rising, single point]
CCN1c2ccccc2-c2nc3ccccc3n2C1c1cccs1 (centres undefined) 1.3 µM [falling, full curve]
CC(C)COC(=O)Nc1ccccc1C(=O)N1CCOCC1 0.0052 µM [falling, full curve, poor fit]
CC(C)(C(=O)Nc1nccs1)c1ccccc1 4.11 µM [falling, partial curve, poor fit]
